Measurements reported in PubChem BioAssay AID686943 (Drosophila RNAi Screening Center, 2013).
In all, the deposit lists about 23,000 reagents; this is an unselected part of those with a known target gene and a result. 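Extra replicates exist only for a retested subset of genes; insulin dose and duration not given; both raised and lowered dpERK matter.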 A plus sign joins genes that one reagent is predicted to hit. Further read-outs or replicates are left out here. Not stated in the record: the amount of reagent, the time to read-out.

Assay: 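Knockdowns that increase or decrease active ERK after insulin receptor stimulation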 (primary screen)
Cells: Drosophila S2R+ haemocyte-like cells expressing YFP-tagged ERK (Rolled)
Reagents: long dsRNA against Drosophila genes
Challenge: insulin stimulation versus unstimulated cells; dose and duration not given
Read-out: 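Antibody staining for doubly phosphorylated ERK divided by ERK-YFP signal, as plate z-scores, in insulin-treated and untreated cells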
Direction: replicate 1, z-score of dpERK with insulin and replicate 2, z-score of dpERK with insulin: higher = more active ERK per ERK-YFP after insulin

| Gene | dsRNA | replicate 1, z-score of dpERK with insulin | replicate 2, z-score of dpERK with insulin |
| --- | --- | --- | --- |
| ebi | DRSC00816 | 0.17 | 0.11 |
| Acp95EF + Spase22-23 | DRSC14102 | 0.21 | -0.18 |
| CG1299 | DRSC08300 | 0.85 | 0.55 |
| Proc-R | DRSC18410 | 0.23 | 0.48 |
| ppk26 | DRSC10991 | -0.5 | 0.38 |
| Alp6 | DRSC06710 | -0.48 | -0.3 |
| CG15025 | DRSC15031 | -0.47 | 0.25 |
| mgr | DRSC16099 | -0.32 | -0.04 |
| Ance-2 | DRSC02539 | -0.68 | 0 |
| CG15579 | DRSC18067 | -0.13 | 0.26 |
| CG3823 | DRSC18325 | 0.01 | 0.49 |
| Rcd4 | DRSC02597 | 0.44 | 0.21 |
| CkIIalpha-i3 | DRSC08651 | -1.39 | -0.46 |
| CG34290 | DRSC13660 | 0.15 | 0.39 |

Records listed so far whose gene name starts with P or p:
| Gene | dsRNA | replicate 1, z-score of dpERK with insulin | replicate 2, z-score of dpERK with insulin |
| --- | --- | --- | --- |
| Proc-R | DRSC18410 | 0.23 | 0.48 |
| ppk26 | DRSC10991 | -0.5 | 0.38 |

The results go on.
| Gene | dsRNA | replicate 1, z-score of dpERK with insulin | replicate 2, z-score of dpERK with insulin |
| --- | --- | --- | --- |
| Ranbp21 | DRSC19447 | 0.28 | -0.15 |
| CG5644 | DRSC10531 | 0.43 | -0.36 |
| CG13022 | DRSC09902 | 0.43 | 0.37 |
| Poc1 | DRSC09713 | -0.1 | -1.01 |
| mdu | DRSC19860 | -4.77 | -1.14 |
| rdo | DRSC02452 | -0.93 | 0.51 |
| CG4712 | DRSC06882 | -0.02 | 0.49 |
| CAH5 | DRSC15372 | 0.52 | 0 |
| CG2233 | DRSC18217 | -0.81 | -0.04 |
